Reference: PubChem BioAssay AID2685 (National Center for Advancing Translational Sciences (NCATS), 2010)
Screen size: about 320,000 compounds; about 2,100 (0.66%) were called active. The inconclusive results got no clear call from the source; some entries with a clear call stand among them for comparison. The call rests on the fitted dose curve; in most records, active means well fitted inhibition curve with a large enough effect in the signal ratio, with a control signal flat (not every such curve was filed as active); inconclusive means small, poorly fitted or top-dose-only effect, or effect the other way, or a change in a side signal; inactive means flat fitted curve, though single readings scatter; the % refers to the signal ratio. Where the call is inconclusive, the potency comes from a doubtful curve fit.

experiment: qHTS Assay for Lipid Storage Modulators in Drosophila S3 Cells; settings: BODIPY lipid droplet fluorescence, 18-24 h, cells fed with added oleic acid; lipid storage change, negative = inhibition: at 46.1 µM (top of the series) unless noted
Summary of the method: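 Drosophila S3 cells got compounds at several concentrations plus oleic acid (400 uM solution). Laser-scanning cytometry with 488 nm excitation read lipid droplets at 500-530 nm and cells at 575-640 nm. Percent activity was relative to 20 uM Triacsin C.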
On the % scale 0 is the no-effect control and ±100 the full control effect; potency means the concentration at half of the fitted maximal effect.

Q: Which lipid storage change, negative = inhibition does the source give for `Cc1ccsc1C(=O)OCC(=O)c1ccc[nH]1` here?
A: inconclusive: 11.7%

Q: With `O=C(NNC(=O)C1CC1c1ccccc1)c1ccccc1[N+](=O)[O-]` (stereo not given) as the compound, how does the Potency read?
A: inconclusive: 29.1 µM [activator, single point]

Q: With `COc1ccc(C(=O)Nc2ccc3ccccc3n2)cc1OC` as the compound, how does the lipid storage change, negative = inhibition read?
A: inconclusive: -53.5%

Q: Which Potency does the source give for `COc1ccc([C@@H]2[C@@H]3C(=O)N(C(C)(C)C)C(=O)[C@@H]3[C@]3(CC(C)C)C(=O)N(c4ccc(C(F)(F)F)cc4)C(=O)N23)cc1` here?
A: active: 20.6 µM

Q: For `O=C(N/N=C/c1ccco1)/C(=C/c1cccc([N+](=O)[O-])c1)NC(=O)c1ccccc1`, which lipid storage change, negative = inhibition is on record?
A: inconclusive: -16.6%

Q: For `CCCCC[C@]12Cc3cc(OC)c(OC)cc3[C@H](O1)c1c(cc(C)oc1=O)O2`, which lipid storage change, negative = inhibition is on record?
A: inconclusive: 24.4% [at 9.22 µM]

Q: For `Cc1[nH]c2ccccc2c1C(=O)CN1C(=O)NC(C)(c2ccc(Cl)cc2Cl)C1=O` (stereo not given), which lipid storage change, negative = inhibition is on record?
A: inconclusive: -29.6%

Q: Which lipid storage change, negative = inhibition does the source give for `CC(C)(C)C(=O)NCC12C=CC(O1)C1C(=O)N(c3ccccc3)C(=O)C12` (stereo not given) here?
A: inconclusive: -2.97%

Q: With `COc1ccc(S(=O)(=O)N(C)c2ccc(C(=O)N3CCCC3)cc2)cc1OC` as the compound, how does the Potency read?
A: active: 0.326 µM

Q: For `O=C(CN1CCN(c2ccccc2F)CC1)NCc1ccccc1`, which Potency is on record?
A: inconclusive: 5.8 µM [falling, single point]

Q: With `CCN(CC)S(=O)(=O)c1ccc(C(=O)NCCCn2ccnc2)cc1` as the compound, how does the lipid storage change, negative = inhibition read?
A: inconclusive: 1.79%

Q: Which lipid storage change, negative = inhibition does the source give for `CCn1c(CNC(=O)c2cc(OC)c(OC)c(OC)c2)cc2cc(C)ccc21` here?
A: inconclusive: -14.4%

Q: Which Potency does the source give for `COc1ccc(N2C(=O)c3ccccc3C(C)(C)C2=O)cc1` here?
A: inconclusive: 6.51 µM [falling, single point]

Q: Which lipid storage change, negative = inhibition does the source give for `CCOCCCNS(=O)(=O)c1ccc(NC(=O)c2ccccc2)cc1` here?
A: inconclusive: 12%

Q: For `O=C(CN1C(=O)S/C(=C\c2ccccc2)C1=O)NC1CCS(=O)(=O)C1` (stereo not given), which Potency is on record?
A: active: 20.6 µM

Q: With `Cc1ccc(-c2onc3ccc(Cl)cc23)cc1` as the compound, how does the lipid storage change, negative = inhibition read?
A: inconclusive: 3.32%

Q: Which lipid storage change, negative = inhibition does the source give for `CCN(Cc1ccccc1)C(=O)c1oc2ccc(C)cc2c1C` here?
A: inconclusive: 39.6%

Q: Which lipid storage change, negative = inhibition does the source give for `COc1cccc(N2CCN(C3CC(=O)N(c4ccc(Cl)c(Cl)c4)C3=O)CC2)c1` (stereo not given) here?
A: inconclusive: 74.3%

Q: With `O=C(OCC(=O)N1CCN(C(=O)c2ccco2)CC1)c1ccccc1C(=O)c1ccccc1` as the compound, how does the Potency read?
A: inconclusive: 0.116 µM [falling, full curve, poor fit]

Q: For `Cc1cc(=O)[nH]c(SCC(=O)c2ccc(O)c(O)c2)n1`, which lipid storage change, negative = inhibition is on record?
A: inconclusive: 9.04%

Q: With `Cn1c(-c2ccccc2)cc2ccccc21` as the compound, how does the Potency read?
A: inconclusive: 29.1 µM [activator, single point]

Q: For `COc1nn(-c2ccccc2)c(=O)c(Cl)c1Cl`, which Potency is on record?
A: active: 11.6 µM

Q: Which Potency does the source give for `CS(=O)(=O)c1ccc(-c2cccc(NC(=O)COc3ccccc3)c2)nn1` here?
A: inconclusive: 0.517 µM [falling, full curve, poor fit]

Q: Which Potency does the source give for `COCCNC(=O)C1(C)Oc2ccccc2NC1=O` (stereo not given) here?
A: inconclusive: 5.8 µM [falling, partial curve]

Q: For `COc1ccc(CCC(=O)NCc2cccc(C(F)(F)F)c2)cc1`, which lipid storage change, negative = inhibition is on record?
A: inconclusive: 2.34%

Q: For `COc1ccccc1C(=O)Nc1nnn(C)n1`, which lipid storage change, negative = inhibition is on record?
A: inconclusive: -13.5%

Q: For `CC1=NN(c2ccccc2)C(=O)C1(C)[N+](=O)[O-]` (stereo not given), which lipid storage change, negative = inhibition is on record?
A: inconclusive: -4.21%

Q: For `COc1ccc2nc(NC(=O)C3CCCN(S(=O)(=O)c4cccc5nsnc45)C3)sc2c1` (stereo not given), which lipid storage change, negative = inhibition is on record?
A: inconclusive: 40.6%

Q: For `CN1CCN(S(=O)(=O)c2cccc(C(=O)Nc3ccccc3N3CCCCC3)c2)CC1`, which lipid storage change, negative = inhibition is on record?
A: inconclusive: 16.1%

Q: With `CCCOc1ccc(-c2c(C(=O)N/N=C(\C)COc3ccccc3)nnn2-c2nonc2N)cc1` as the compound, how does the Potency read?
A: inconclusive: 0.58 µM [activator, single point]

Q: With `Cn1c(=O)n(C)c2cc(N3CCCCC3)c(NC(=O)c3cccc(Cl)c3)cc21` as the compound, how does the lipid storage change, negative = inhibition read?
A: inconclusive: 295%

Q: For `COC(=O)C1C(=O)c2c(n[nH]c2C)CC1(C)C` (stereo not given), which lipid storage change, negative = inhibition is on record?
A: inconclusive: 19.8%

Q: For `COC(=O)C1CCN(C(=O)COC(=O)c2ccc(=O)n(Cc3ccccc3)n2)CC1`, which lipid storage change, negative = inhibition is on record?
A: inconclusive: -3.63%

Q: Which Potency does the source give for `O=C(CN1C(=O)C2CCCCC2C1=O)Nc1ccccc1C(=O)O` (stereo not given) here?
A: inconclusive: 20.6 µM [activator, single point]

Q: With `COc1ccc(/C=N/n2c(C)nc3ccccc3c2=O)cc1` as the compound, how does the lipid storage change, negative = inhibition read?
A: inconclusive: -15.3%

Q: With `Cn1c(SCc2nc3ccccc3[nH]2)nnc1-c1cnccn1` as the compound, how does the lipid storage change, negative = inhibition read?
A: inconclusive: 53.3%

Q: For `CC(=O)N1CCN(S(=O)(=O)c2cccc(C(=O)NCCc3ccc(Cl)cc3)c2)CC1`, which lipid storage change, negative = inhibition is on record?
A: inconclusive: 27%

Q: Which Potency does the source give for `CCC(=O)c1cc(F)ccc1OCC(=O)Nc1ccc2c(c1)OCCO2` here?
A: inconclusive: 20.6 µM [falling, partial curve, poor fit]

Q: With `Cc1cc(C)n(-c2nc(SCCN(C)C)c3c4c(sc3n2)CCCC4)n1` as the compound, how does the lipid storage change, negative = inhibition read?
A: inconclusive: 41.2%

Q: With `Cc1c(C(=O)NCc2ccccc2CN2CCCC2)oc2ccc(F)cc12` as the compound, how does the lipid storage change, negative = inhibition read?
A: inconclusive: 12%

Q: Which lipid storage change, negative = inhibition does the source give for `COc1ccc(Cl)cc1NC(=S)NCc1ccc(S(N)(=O)=O)cc1` here?
A: inconclusive: -58.1%

Q: For `CC(=O)c1cccc(NC(=O)Cn2nc(-c3ccccc3Cl)ccc2=O)c1`, which lipid storage change, negative = inhibition is on record?
A: inconclusive: 37.3%

Q: Which lipid storage change, negative = inhibition does the source give for `O=S(=O)(c1ccc(NC(=S)NCCc2ccccc2)cc1)N1CCOCC1` here?
A: inconclusive: 19.1%

Q: For `Cc1nc2sccn2c(=O)c1Cl`, which Potency is on record?
A: inconclusive: 6.51 µM [activator, partial curve, poor fit]

Q: Which lipid storage change, negative = inhibition does the source give for `Cc1ccc(CNC(=O)c2ccccc2N)cc1` here?
A: inconclusive: 12%

Q: For `COC(=O)CCC(=O)Nc1ccc(S(=O)(=O)Nc2nc(C)cc(C)n2)cc1`, which Potency is on record?
A: inconclusive: 29.1 µM [activator, single point]

Q: Which lipid storage change, negative = inhibition does the source give for `O=C(COC(=O)c1ccccc1OCc1ccccc1Cl)NC1CC1` here?
A: inconclusive: 30%

Q: With `O=C(NC1CCN(C(=O)Nc2cccc(Cl)c2)CC1)c1ccccc1` as the compound, how does the Potency read?
A: inconclusive: 6.51 µM [activator, single point]

Q: Which lipid storage change, negative = inhibition does the source give for `COc1cccc(-c2nc(-c3ccccc3)c(-c3ccccc3)[nH]2)c1OCC(=O)O` here?
A: inconclusive: 49%

Q: Which lipid storage change, negative = inhibition does the source give for `O=C(NNC(=S)NC(=O)c1cccc([N+](=O)[O-])c1)c1ccc(Br)cc1` here?
A: inconclusive: 4.79%
